Measurements as given in PMC5780470, “Copper(I)-binding properties of de-coppering drugs for the treatment of Wilson disease. α-Lipoic acid as a potential anti-copper agent” (Scientific Reports, 2018).

Each compound was assayed on Cox17 (Cu1Cox17, apo-Cox17_3S-S) (assay: ESI-MS demetallation of Cu1Cox17, hyperbolic fit). Conditions: C50 for Cu(I) extraction from 1 uM Cu1Cox17, not a protein affinity; 50 uM DTT, 20 mM ammonium acetate, pH 7.3, 25 °C.
Type: binding

Going from `NCCNCCNCCN` [TR, trientine] to `O=C(O)CCCC[C@@H](S)CCS` (racemic) [DLA, dihydrolipoic acid], the IC50 falls from 1.08 ± 0.13 mM to 0.498 ± 0.098 mM (2.2-fold). The second is the more potent here.

Going from `CCN(CC)C(=S)S` [DETC, diethyl dithiocarbamate] to `CC(C)(S)[C@@H](N)C(=O)O` [PA, D-penicillamine], the IC50 rises from 0.00528 ± 0.00032 mM to 1.47 ± 0.33 mM (280-fold).

For `O=C(O)[C@@H](S)[C@@H](S)C(=O)O` [DMS, meso-2,3-dimercaptosuccinate], the IC50 was 0.00314 ± 0.00041 mM.
